Laboratory results: PMC11895293
Results are given in words; binding and its absence hold for the method and conditions named. Binding seen in cells or lysates may run through a third protein. Some binding calls cover weakened binding; strength is not graded here. Tags and fused reporters may be left off the sequences shown.

Protein sequences, listed by entry. Tags and fused reporters are not part of them. Lines headed by an entry give the natural chain unless they say otherwise; changes in a name come on top. Residues count along the entry.
Flag-USP10 mutant 1 (M1), amino acids 1-100 (Q14694, residues 1-100): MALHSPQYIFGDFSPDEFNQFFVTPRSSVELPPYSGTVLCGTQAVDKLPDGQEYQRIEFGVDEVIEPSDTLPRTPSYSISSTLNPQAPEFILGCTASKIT
Flag-USP10 mutant 2 (M2), amino acids 101-400 (Q14694, residues 101-400): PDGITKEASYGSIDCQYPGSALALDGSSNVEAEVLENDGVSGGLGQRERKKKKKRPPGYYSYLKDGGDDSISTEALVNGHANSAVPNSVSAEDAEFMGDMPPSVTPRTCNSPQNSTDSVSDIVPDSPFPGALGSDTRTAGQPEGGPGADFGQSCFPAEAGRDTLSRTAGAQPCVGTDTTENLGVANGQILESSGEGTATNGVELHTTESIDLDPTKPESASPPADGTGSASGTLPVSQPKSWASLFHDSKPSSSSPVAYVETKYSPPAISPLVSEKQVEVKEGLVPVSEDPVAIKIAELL
Flag-USP10 mutant 3 (M3), amino acids 401-798 (Q14694, residues 401-798): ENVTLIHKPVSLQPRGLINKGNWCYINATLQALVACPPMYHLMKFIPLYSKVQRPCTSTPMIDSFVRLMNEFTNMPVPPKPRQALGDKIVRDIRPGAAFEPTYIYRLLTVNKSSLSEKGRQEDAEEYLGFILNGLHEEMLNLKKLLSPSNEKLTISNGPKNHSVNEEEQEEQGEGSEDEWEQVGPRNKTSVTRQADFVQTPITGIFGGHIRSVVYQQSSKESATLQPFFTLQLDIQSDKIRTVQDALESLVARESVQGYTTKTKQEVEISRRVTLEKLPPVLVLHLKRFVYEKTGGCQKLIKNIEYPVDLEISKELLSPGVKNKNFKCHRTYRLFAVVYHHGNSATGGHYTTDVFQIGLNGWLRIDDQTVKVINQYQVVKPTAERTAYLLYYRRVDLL

What follows are substances tested against T1, Myc-XAB2 (UniProt Q9HCS7) (assay: co-IP; HEK293T cells transfected with Myc-XAB2 and Flag-tagged FL USP10 or its deletion mutants).
T1 sequence: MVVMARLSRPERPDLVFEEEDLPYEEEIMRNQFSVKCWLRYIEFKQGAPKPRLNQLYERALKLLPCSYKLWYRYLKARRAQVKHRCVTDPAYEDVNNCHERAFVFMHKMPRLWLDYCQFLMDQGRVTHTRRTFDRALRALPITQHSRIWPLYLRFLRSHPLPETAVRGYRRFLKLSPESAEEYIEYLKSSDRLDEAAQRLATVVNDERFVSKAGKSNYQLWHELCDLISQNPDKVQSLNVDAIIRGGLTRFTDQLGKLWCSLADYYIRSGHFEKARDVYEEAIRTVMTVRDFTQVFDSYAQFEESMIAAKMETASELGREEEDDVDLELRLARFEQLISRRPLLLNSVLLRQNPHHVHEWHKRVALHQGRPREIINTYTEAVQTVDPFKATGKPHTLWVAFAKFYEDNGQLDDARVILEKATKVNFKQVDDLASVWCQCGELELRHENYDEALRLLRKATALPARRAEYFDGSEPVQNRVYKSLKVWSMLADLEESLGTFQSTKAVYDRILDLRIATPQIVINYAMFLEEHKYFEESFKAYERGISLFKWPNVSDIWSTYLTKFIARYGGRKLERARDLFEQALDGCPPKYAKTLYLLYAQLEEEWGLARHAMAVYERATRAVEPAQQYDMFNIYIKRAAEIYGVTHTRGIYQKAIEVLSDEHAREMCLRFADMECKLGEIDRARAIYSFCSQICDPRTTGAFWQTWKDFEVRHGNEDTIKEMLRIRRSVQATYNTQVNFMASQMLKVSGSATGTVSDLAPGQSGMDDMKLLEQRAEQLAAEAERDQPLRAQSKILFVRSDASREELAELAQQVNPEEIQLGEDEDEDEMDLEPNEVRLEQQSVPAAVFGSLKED

Substance | binding
Flag-USP10 mutant 1 (M1), amino acids 1-100 (from UniProt Q14694 1-100) (domain or fragment) | binds
Flag-USP10 mutant 2 (M2), amino acids 101-400 (from UniProt Q14694 101-400) (domain or fragment) | no binding
Flag-USP10 mutant 3 (M3), amino acids 401-798 (from UniProt Q14694 401-798) (domain or fragment) | no binding
